According to PMC6754381:
Results are given in words; binding and its absence hold for the method and conditions named. Binding can be weak; no strength is given.

Molecular target: T1, Dab2 on the HuProt v3.1 human proteome array (human) (UniProt P98082)
T1 sequence: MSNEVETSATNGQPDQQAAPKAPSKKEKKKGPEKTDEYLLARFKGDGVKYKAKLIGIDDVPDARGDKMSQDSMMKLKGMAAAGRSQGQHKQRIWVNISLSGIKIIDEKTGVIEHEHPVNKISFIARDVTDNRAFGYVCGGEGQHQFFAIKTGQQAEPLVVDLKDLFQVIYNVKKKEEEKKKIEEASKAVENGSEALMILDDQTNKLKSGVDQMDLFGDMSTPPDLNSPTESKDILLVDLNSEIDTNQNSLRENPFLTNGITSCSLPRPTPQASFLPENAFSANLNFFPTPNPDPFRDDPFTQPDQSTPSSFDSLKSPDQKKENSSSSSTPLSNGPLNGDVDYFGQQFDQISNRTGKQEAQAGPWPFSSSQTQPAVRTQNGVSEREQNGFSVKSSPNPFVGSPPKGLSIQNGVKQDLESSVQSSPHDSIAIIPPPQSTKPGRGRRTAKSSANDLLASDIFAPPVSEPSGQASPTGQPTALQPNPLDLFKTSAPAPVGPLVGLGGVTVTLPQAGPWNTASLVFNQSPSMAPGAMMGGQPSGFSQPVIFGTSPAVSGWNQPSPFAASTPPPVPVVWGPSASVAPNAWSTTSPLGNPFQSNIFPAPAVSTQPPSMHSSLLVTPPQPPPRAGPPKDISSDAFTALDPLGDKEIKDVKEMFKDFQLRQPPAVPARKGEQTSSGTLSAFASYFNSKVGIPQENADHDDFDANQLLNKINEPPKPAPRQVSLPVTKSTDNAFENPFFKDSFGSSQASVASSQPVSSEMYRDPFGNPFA
Assay: peptide or protein array; recombinant LCN-2 probed at 1 ug/mL on HuProt v3.1 human proteome array plates; triplicate; hits with Z-score above 6; both purified

Recombinant LCN-2 (lipocalin-2)
binding: binds
